PubChem BioAssay AID1259291 – Sanger Institute – 2017
The deposit covers 794 reagents; shown is a random part of them. 15 of all reagents (1.9%) count as active. 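Calls rest on knock-down alone; drug synergy scores do not affect them; drugs added a day post-transfection, DMSO vehicle as comparison.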 Viability is capped at 1. Not all columns of the deposit are shown. No sequences are given here. Not stated in the record: the amount of reagent, the time to read-out.

Screen: 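Search for gene knock-downs that act synergistically alongside anchor drugs to kill cells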 (primary screen)
Cell system: HT29 human colorectal cancer cells
Reagents: siRNA pool against human genes
Treatment: anchor drugs added a day after transfection: BYL719 at 1 µM, cetuximab at 5 µg/ml or trametinib at 10 nM, or DMSO vehicle alone
Detection: 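Replicate-averaged viability relative to non-targeting pool, robust z-score based on control wells, plus per-drug synergy score for 1 µM BYL719, 5 µg/ml cetuximab and 10 nM trametinib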
Reading the numbers: robust z-score, knock-down alone and viability, knock-down alone: higher = more viable cells; synergy score with BYL719 and synergy score with cetuximab: higher = stronger synergistic killing with drug
Active means: 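Essential when the robust z-score for knock-down without any drug is below -3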
Calls: active = essential (knock-down alone); inactive = no change alone

gene | robust z-score, knock-down alone | viability, knock-down alone (fraction of control) | synergy score with BYL719 | synergy score with cetuximab | Outcome
EPHA2 (EPH receptor A2) | 0.552 | 1 | -0.00956 | 0 | inactive
CSNK2B (casein kinase 2 beta) | 0.552 | 1 | -0.00843 | 0.0726 | inactive
PRKD3 (protein kinase D3) | -2.6 | 0.804 | -0.181 | -0.0944 | inactive
MED24 (mediator complex subunit 24) | 0.552 | 1 | 0.0359 | 0.00476 | inactive
LIMK2 (LIM domain kinase 2) | 0.552 | 1 | 0.0486 | 0 | inactive
ADCK1 (aarF domain containing kinase 1) | -1.26 | 0.888 | -0.0235 | -0.112 | inactive
TWF1 (twinfilin actin binding protein 1) | -1.38 | 0.88 | -0.174 | -0.0822 | inactive
CAMKV (CaM kinase like vesicle associated) | 0.552 | 1 | 0.0671 | 0.124 | inactive
RPS6KA6 (ribosomal protein S6 kinase A6) | -0.771 | 0.918 | -0.127 | -0.0484 | inactive
TJP2 (tight junction protein 2) | 0.552 | 1 | -0.0256 | 0 | inactive
CTNNB1 (catenin beta 1) | -0.105 | 0.959 | 0.121 | 0.246 | inactive

Reformatted: results already given
{"gene":"CSNK2B (casein kinase 2 beta)","robust z-score, knock-down alone":0.552,"viability, knock-down alone (fraction of control)":1,"synergy score with BYL719":-0.00843,"synergy score with cetuximab":0.0726,"Outcome":"inactive"}
{"gene":"PRKD3 (protein kinase D3)","robust z-score, knock-down alone":-2.6,"viability, knock-down alone (fraction of control)":0.804,"synergy score with BYL719":-0.181,"synergy score with cetuximab":-0.0944,"Outcome":"inactive"}

Next entries:
gene | robust z-score, knock-down alone | viability, knock-down alone (fraction of control) | synergy score with BYL719 | synergy score with cetuximab | Outcome
STK17A (serine/threonine kinase 17a) | 0.552 | 1 | -0.00733 | 0 | inactive
MOS (MOS proto-oncogene, serine/threonine kinase) | -0.244 | 0.951 | -0.104 | -0.0495 | inactive
COQ8B (coenzyme Q8B) | -0.0761 | 0.961 | 0.0143 | 0.0374 | inactive
EIF2AK3 (eukaryotic translation initiation factor 2 alpha kinase 3) | 0.552 | 1 | 0.0617 | 0.0574 | inactive
WIPF1 (WAS/WASL interacting protein family member 1) | 0.552 | 1 | 0.0186 | 0.104 | inactive
DGKG (diacylglycerol kinase gamma) | 0.314 | 0.985 | -0.0769 | -0.0149 | inactive
WNK4 (WNK lysine deficient protein kinase 4) | 0.552 | 1 | -0.0517 | 0.107 | inactive
AURKC (aurora kinase C) | 0.552 | 1 | 0.0244 | 0.075 | inactive
PRKCI (protein kinase C iota) | -0.301 | 0.947 | 0.101 | -0.00414 | inactive
